# In the supplement of paper PMC10849652:
# By UniProt entry, the sequences of proteins in these tests, tags left out. Where a name states a change or a piece, a line headed by the entry shows the natural chain unless it says otherwise.
# UniProt Q9UBL6: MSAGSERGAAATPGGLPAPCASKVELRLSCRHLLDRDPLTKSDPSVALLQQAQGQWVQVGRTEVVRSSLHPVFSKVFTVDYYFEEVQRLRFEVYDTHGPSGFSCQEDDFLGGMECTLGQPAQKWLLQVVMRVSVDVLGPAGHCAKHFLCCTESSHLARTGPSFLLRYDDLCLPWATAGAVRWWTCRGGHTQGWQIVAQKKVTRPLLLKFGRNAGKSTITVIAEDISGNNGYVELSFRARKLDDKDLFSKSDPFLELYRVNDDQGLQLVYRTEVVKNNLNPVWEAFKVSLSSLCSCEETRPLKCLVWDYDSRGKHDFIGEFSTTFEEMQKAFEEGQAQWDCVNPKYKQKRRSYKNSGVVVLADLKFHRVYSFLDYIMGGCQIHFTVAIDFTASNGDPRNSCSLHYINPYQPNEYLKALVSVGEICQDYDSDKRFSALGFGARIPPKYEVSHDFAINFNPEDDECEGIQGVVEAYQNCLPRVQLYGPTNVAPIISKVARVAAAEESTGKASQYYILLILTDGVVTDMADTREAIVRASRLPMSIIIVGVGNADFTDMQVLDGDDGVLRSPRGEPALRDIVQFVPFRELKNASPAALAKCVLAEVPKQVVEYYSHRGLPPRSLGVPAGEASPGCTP
# UniProt Q8IYK4: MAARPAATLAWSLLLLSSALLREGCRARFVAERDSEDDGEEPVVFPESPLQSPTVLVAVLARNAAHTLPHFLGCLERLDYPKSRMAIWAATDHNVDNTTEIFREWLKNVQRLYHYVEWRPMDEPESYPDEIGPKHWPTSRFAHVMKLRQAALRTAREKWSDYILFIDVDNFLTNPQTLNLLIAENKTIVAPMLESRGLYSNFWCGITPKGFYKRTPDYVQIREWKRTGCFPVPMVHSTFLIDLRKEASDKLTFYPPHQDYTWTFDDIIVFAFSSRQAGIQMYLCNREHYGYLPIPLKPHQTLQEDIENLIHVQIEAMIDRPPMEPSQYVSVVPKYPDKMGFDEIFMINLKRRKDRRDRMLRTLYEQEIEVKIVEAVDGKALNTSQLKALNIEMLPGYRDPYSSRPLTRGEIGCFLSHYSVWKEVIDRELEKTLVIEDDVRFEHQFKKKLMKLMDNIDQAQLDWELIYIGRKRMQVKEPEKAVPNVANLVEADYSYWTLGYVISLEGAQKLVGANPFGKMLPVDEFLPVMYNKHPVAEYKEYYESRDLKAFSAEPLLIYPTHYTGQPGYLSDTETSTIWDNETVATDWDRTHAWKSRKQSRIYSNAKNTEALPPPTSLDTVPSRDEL
# UniProt P10606, whole entry, looked up: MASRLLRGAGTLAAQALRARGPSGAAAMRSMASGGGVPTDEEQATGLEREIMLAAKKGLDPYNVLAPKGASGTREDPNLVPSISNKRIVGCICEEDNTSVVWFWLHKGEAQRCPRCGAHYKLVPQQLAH
# UniProt O75208: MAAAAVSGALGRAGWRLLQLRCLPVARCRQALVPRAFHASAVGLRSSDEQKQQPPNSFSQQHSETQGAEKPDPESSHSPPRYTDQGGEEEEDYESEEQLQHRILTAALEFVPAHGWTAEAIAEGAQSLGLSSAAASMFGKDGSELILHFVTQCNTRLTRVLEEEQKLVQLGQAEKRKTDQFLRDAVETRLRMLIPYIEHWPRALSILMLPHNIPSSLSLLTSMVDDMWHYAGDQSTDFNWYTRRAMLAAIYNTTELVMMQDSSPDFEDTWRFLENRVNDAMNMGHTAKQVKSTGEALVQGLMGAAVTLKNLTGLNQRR
# UniProt Q9Y2Z9: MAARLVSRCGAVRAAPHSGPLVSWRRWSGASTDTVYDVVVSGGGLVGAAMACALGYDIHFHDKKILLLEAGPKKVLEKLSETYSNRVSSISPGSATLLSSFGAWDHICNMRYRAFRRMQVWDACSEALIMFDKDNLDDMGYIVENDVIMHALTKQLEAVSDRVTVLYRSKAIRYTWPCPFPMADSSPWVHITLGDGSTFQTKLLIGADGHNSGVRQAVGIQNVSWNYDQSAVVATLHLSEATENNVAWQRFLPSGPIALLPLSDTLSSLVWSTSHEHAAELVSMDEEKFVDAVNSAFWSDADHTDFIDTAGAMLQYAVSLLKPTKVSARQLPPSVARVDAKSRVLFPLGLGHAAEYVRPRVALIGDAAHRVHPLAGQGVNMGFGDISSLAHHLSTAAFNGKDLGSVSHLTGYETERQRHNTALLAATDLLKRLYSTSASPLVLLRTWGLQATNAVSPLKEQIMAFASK
# UniProt Q7Z7A1: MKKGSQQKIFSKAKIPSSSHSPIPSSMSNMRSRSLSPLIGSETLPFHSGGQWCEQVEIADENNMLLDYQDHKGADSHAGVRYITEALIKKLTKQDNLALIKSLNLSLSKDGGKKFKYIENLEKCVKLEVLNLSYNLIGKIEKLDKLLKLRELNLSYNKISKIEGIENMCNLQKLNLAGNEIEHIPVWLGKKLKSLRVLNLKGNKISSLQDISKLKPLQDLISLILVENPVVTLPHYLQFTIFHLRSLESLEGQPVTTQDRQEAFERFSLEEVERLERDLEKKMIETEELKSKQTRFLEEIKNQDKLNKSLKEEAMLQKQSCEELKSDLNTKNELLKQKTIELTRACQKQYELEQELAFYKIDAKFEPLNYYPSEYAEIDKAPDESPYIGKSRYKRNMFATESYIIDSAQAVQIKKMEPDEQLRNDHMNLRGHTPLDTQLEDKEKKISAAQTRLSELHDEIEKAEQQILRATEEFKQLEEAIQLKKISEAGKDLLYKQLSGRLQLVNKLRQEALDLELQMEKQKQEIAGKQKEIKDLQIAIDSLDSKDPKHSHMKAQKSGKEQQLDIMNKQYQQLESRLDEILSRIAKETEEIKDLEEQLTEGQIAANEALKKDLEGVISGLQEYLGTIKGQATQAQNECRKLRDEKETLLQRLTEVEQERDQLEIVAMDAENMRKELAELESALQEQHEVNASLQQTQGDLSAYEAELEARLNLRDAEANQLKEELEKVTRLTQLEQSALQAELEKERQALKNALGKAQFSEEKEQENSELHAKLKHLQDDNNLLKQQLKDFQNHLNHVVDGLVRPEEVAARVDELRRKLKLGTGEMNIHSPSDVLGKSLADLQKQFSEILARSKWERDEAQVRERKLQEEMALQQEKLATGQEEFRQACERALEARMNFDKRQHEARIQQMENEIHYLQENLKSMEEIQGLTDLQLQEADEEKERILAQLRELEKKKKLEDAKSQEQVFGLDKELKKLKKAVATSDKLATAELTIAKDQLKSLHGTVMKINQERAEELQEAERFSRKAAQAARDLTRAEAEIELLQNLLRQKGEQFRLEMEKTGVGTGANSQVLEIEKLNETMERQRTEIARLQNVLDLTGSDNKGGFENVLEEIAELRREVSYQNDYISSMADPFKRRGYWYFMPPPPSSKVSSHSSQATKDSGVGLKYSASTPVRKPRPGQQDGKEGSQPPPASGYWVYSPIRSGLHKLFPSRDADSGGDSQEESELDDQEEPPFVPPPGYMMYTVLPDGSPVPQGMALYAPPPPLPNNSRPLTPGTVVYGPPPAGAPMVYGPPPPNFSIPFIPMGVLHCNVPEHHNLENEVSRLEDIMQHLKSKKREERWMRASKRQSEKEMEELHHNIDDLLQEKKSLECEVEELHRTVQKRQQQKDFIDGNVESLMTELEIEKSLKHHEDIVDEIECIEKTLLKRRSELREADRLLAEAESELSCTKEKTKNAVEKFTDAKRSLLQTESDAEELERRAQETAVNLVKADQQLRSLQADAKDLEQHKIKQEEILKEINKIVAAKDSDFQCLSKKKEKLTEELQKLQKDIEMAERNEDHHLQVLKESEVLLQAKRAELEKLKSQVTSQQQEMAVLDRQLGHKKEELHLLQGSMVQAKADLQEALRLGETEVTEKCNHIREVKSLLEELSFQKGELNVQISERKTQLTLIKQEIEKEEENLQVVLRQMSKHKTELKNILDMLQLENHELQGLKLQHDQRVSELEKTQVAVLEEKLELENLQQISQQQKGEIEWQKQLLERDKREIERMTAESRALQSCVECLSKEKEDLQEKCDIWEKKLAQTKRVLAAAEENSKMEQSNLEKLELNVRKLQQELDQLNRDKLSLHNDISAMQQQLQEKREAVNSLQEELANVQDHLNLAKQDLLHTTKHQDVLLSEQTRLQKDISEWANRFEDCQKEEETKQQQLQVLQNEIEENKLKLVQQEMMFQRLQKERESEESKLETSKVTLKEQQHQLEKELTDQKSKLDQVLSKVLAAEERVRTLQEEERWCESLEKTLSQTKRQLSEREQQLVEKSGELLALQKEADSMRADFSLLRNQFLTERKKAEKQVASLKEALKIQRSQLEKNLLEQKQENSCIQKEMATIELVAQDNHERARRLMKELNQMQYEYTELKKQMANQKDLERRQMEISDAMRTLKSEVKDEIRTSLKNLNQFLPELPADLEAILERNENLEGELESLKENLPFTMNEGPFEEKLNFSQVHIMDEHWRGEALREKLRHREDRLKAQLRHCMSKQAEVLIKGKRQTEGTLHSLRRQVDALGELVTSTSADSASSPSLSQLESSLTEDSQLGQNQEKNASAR
# UniProt A4D0V7: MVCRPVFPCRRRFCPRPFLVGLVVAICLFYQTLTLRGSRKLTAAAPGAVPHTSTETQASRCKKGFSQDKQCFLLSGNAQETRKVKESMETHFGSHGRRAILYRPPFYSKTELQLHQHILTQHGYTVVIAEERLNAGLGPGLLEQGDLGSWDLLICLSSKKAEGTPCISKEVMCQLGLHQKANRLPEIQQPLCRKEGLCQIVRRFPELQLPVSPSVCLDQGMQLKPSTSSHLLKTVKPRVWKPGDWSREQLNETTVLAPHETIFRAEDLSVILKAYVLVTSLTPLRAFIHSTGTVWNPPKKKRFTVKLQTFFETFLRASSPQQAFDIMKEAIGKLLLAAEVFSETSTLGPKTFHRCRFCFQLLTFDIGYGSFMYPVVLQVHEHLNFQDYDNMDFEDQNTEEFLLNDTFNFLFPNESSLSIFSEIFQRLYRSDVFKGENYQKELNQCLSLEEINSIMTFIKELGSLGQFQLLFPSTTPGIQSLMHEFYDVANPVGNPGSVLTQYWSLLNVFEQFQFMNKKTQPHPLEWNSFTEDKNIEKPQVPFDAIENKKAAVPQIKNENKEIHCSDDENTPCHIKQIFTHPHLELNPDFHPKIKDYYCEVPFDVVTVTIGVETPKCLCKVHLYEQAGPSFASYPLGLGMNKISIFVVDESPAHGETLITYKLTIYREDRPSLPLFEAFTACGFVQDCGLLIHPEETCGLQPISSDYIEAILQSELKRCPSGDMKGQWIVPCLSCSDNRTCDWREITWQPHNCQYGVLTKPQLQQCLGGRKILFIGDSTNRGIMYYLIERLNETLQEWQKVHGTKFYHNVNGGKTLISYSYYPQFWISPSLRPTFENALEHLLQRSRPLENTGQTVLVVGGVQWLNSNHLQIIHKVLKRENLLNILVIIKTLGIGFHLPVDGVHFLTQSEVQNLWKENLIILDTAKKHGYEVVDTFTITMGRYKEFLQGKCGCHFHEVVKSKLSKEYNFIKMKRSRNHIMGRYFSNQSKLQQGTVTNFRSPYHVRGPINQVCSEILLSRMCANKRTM
# UniProt Q8N8Q8: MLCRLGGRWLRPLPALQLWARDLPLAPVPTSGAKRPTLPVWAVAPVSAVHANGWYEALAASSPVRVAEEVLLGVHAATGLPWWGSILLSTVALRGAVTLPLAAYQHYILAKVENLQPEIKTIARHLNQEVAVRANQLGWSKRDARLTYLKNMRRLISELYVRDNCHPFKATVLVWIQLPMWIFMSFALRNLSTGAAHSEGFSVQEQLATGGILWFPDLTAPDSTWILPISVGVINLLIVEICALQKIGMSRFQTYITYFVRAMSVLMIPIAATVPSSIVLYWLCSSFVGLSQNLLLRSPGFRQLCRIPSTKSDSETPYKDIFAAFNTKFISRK
# UniProt O95639, whole entry, looked up: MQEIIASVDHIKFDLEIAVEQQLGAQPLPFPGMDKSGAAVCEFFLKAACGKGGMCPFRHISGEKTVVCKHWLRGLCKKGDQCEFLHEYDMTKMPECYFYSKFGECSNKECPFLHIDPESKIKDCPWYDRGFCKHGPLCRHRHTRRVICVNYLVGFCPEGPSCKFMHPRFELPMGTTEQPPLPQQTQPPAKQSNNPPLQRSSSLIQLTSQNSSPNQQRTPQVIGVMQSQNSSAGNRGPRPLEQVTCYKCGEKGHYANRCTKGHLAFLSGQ
# UniProt Q8N668, whole entry, looked up: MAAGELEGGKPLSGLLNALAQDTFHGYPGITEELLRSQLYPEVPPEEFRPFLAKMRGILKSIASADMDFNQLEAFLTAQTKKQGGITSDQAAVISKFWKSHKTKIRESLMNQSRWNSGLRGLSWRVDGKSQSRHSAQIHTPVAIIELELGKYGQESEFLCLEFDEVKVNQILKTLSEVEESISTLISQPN
# UniProt P24311, whole entry, looked up: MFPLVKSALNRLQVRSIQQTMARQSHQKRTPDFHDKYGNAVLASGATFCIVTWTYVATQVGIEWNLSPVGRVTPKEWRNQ
# This is one part of the list.
# How the values were obtained:
# Test in all cases: log2 fold change, soluble protein after heating vs DMSO (PISA); higher = thermal stabilisation; K562 lysate, 10 uM; active = over 0.2 and 3.5 SD of the protein, either way, in both replicates (recomputed)
# alvocidib = compound: CN1CC[C@H](c2c(O)cc(O)c3c(=O)cc(-c4ccccc4Cl)oc23)[C@H](O)C1 [alvocidib]
# In short: (§1)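 Dounce homogenisation of K562 pellets in PBS pH 7.4 with 1 mM MgCl2 produced a crude extract, used at 1 mg/mL protein. Exposure to 10 μM compound lasted 30 min, and aliquots were then heated for 3 min across 48°C-58°C, pooled and brought to 0.5% NP-40 at 4°C. The supernatant after 21,000xg for 90 min was quantified by TMTpro 16plex LC-MS/MS with channel sums equalised. Duplicate values are given as log-two fold change in thermal stability relative to solvent controls.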
# Tubastatin A = compound: CN1CCc2c(c3ccccc3n2Cc2ccc(C(=O)NO)cc2)C1 [Tubastatin A]
# In short: as §1
# [1] = compound: CNC(=O)C1=CC=CC=C1NC2=NC(=NC=C2Cl)NC3=C(C=C(C=C3)N4CCOCC4)OC
# In short: as §1
# defactinib = compound: CNC(=O)c1ccc(Nc2ncc(C(F)(F)F)c(NCc3nccnc3N(C)S(C)(=O)=O)n2)cc1 [defactinib]
# In short: as §1
# [2] = compound: CNc1nc(-c2ccc3c(N)n[nH]c3c2)cc(N2C[C@@H](C(=O)NC3CCCCC3)CC[C@H]2C)n1
# In short: as §1
# encorafenib = compound: COC(=O)N[C@@H](C)CNc1nccc(-c2cn(C(C)C)nc2-c2cc(Cl)cc(NS(C)(=O)=O)c2F)n1 [encorafenib]
# In short: as §1
# [3] = compound: COC(=O)[C@H](CCSC)NC(=O)C1=C(C=C(C=C1)NC[C@H](CS)N)C2=CC=CC=C2
# In short: as §1
# alisertib = compound: COc1cc(Nc2ncc3c(n2)-c2ccc(Cl)cc2C(c2c(F)cccc2OC)=NC3)ccc1C(=O)O [alisertib]
# In short: as §1
# [4] = compound: COc1cc2nc(-c3cc(F)ccc3O)nc(N[C@@H]3CNC[C@H]3C(C)(C)O)c2cc1OC
# In short: as §1
# gefitinib = compound: COc1cc2ncnc(Nc3ccc(F)c(Cl)c3)c2cc1OCCCN1CCOCC1 [gefitinib]
# In short: as §1
# lapatinib = compound: CS(=O)(=O)CCNCc1ccc(-c2ccc3ncnc(Nc4ccc(OCc5cccc(F)c5)c(Cl)c4)c3c2)o1 [lapatinib]
# In short: as §1
# pictilisib = compound: CS(=O)(=O)N1CCN(Cc2cc3nc(-c4cccc5[nH]ncc45)nc(N4CCOCC4)c3s2)CC1 [pictilisib]
# In short: as §1
# crizotinib = compound: C[C@@H](Oc1cc(-c2cnn(C3CCNCC3)c2)cnc1N)c1c(Cl)ccc(F)c1Cl [crizotinib]
# In short: as §1
# [5] = compound: C[C@H](C1=CC=C(C=C1)C(=O)NC2=C3C=CNC3=NC=C2)N
# In short: as §1
# duvelisib = compound: C[C@H](Nc1ncnc2nc[nH]c12)c1cc2cccc(Cl)c2c(=O)n1-c1ccccc1 [duvelisib]
# In short: as §1
# gandotinib = compound: Cc1cc(Nc2cc(CN3CCOCC3)c3nc(C)c(Cc4ccc(Cl)cc4F)n3n2)n[nH]1 [gandotinib]
# In short: as §1
# tozasertib = compound: Cc1cc(Nc2cc(N3CCN(C)CC3)nc(Sc3ccc(NC(=O)C4CC4)cc3)n2)n[nH]1 [tozasertib]
# In short: as §1
# doramapimod = compound: Cc1ccc(-n2nc(C(C)(C)C)cc2NC(=O)Nc2ccc(OCCN3CCOCC3)c3ccccc23)cc1 [doramapimod]
# In short: as §1
# bafetinib = compound: Cc1ccc(NC(=O)c2ccc(CN3CC[C@H](N(C)C)C3)c(C(F)(F)F)c2)cc1Nc1nccc(-c2cncnc2)n1 [bafetinib]
# In short: as §1
# [6] = compound: Cc1cccc(CC(=O)N2CCc3c2ccc(-c2cn(C)c4ncnc(N)c24)c3F)n1
# In short: as §1
Target,log2 fold change (alvocidib),log2 fold change (Tubastatin A),log2 fold change [1],log2 fold change (defactinib),log2 fold change [2],log2 fold change (encorafenib),log2 fold change [3],log2 fold change (alisertib),log2 fold change [4],log2 fold change (gefitinib),log2 fold change (lapatinib),log2 fold change (pictilisib),log2 fold change (crizotinib),log2 fold change [5],log2 fold change (duvelisib),log2 fold change (gandotinib),log2 fold change (tozasertib),log2 fold change (doramapimod),log2 fold change (bafetinib),log2 fold change [6]
CPNE7 (UniProt Q9UBL6),inactive: -0.019,inactive: -0.045,inactive: -0.006,inactive: -0.05,inactive: -0.043,inactive: 0.052,inactive: 0,inactive: 0.025,inactive: 0.005,inactive: 0.046,inactive: -0.077,inactive: -0.067,inactive: 0.017,inactive: -0.203,inactive: -0.026,inactive: 0.077,inactive: 0.103,inactive: -0.063,inactive: 0.015,inactive: 0.111
COLGALT2 (UniProt Q8IYK4),inactive: 0.011,inactive: -0.011,inactive: 0.026,inactive: 0.012,inactive: -0.064,inactive: 0.035,inactive: 0.002,inactive: -0.003,inactive: 0.008,inactive: 0.008,inactive: -0.017,inactive: 0.01,inactive: 0.037,inactive: -0.004,inactive: -0.016,inactive: -0.022,inactive: 0.011,inactive: 0.002,inactive: -0.017,inactive: 0.017
CRACR2A isoform 2 (UniProt Q9BSW2),inactive: 0.013,inactive: -0.039,inactive: -0.026,inactive: -0.024,inactive: -0.029,inactive: 0.035,inactive: 0.056,inactive: 0.029,inactive: 0.055,inactive: 0.009,inactive: -0.012,inactive: 0.037,inactive: -0.035,inactive: 0.005,inactive: -0.036,inactive: -0.074,inactive: -0.06,inactive: -0.052,inactive: 0.048,inactive: -0.028
COX5B (UniProt P10606),inactive: 0.053,inactive: 0.075,inactive: 0.03,inactive: 0.055,inactive: 0.031,inactive: 0.011,inactive: -0.031,inactive: 0.045,inactive: 0.022,inactive: -0.159,inactive: 0.045,inactive: -0.019,inactive: 0.036,inactive: 0.13,inactive: -0.011,inactive: -0.119,inactive: 0.01,inactive: 0.011,inactive: 0.003,inactive: -0.07
COQ9 (UniProt O75208),inactive: 0.002,inactive: -0.041,inactive: -0.035,inactive: 0.023,inactive: 0.136,inactive: -0.021,inactive: 0.024,inactive: 0.026,inactive: 0.025,inactive: -0.012,inactive: -0.033,inactive: -0.021,inactive: 0.014,inactive: 0.055,inactive: -0.052,inactive: -0.12,inactive: 0.02,inactive: -0.055,inactive: 0.032,inactive: 0.019
COQ6 (UniProt Q9Y2Z9),inactive: -0.042,inactive: -0.063,inactive: 0.039,inactive: 0.071,inactive: 0.006,inactive: -0.082,inactive: 0.088,inactive: -0.029,inactive: 0.004,inactive: -0.063,inactive: 0.022,inactive: 0.078,inactive: 0.02,inactive: 0.034,inactive: 0.002,inactive: -0.032,inactive: 0.003,inactive: -0.045,inactive: 0.074,inactive: 0.001
CNTRL (UniProt Q7Z7A1),inactive: -0.086,inactive: -0.024,inactive: 0.015,inactive: 0.014,inactive: 0.01,inactive: -0.003,inactive: 0.065,inactive: -0.028,–,inactive: 0.078,–,inactive: -0.019,inactive: -0.032,inactive: -0.08,inactive: 0.024,inactive: 0.088,inactive: -0.022,inactive: 0.056,inactive: -0.039,inactive: 0.126
CPED1 (UniProt A4D0V7),inactive: -0.014,inactive: 0.025,inactive: 0.01,inactive: -0.036,inactive: 0.152,inactive: 0.054,inactive: 0.041,inactive: 0.012,inactive: 0.118,inactive: -0.072,inactive: 0.011,inactive: 0.032,inactive: -0.016,inactive: -0.045,inactive: 0.057,inactive: 0.014,inactive: -0.038,inactive: 0.012,inactive: -0.016,inactive: 0.112
COX18 (UniProt Q8N8Q8),inactive: 0.016,inactive: -0.028,inactive: 0.039,inactive: 0.049,inactive: 0.039,inactive: -0.118,inactive: 0.002,inactive: 0.032,inactive: -0.108,inactive: 0.064,inactive: -0.012,inactive: -0.016,inactive: -0.057,inactive: -0.071,inactive: 0.038,inactive: -0.016,inactive: -0.021,inactive: -0.022,inactive: -0.093,inactive: 0.052
CPSF4 (UniProt O95639),inactive: -0.029,inactive: -0.102,inactive: -0.017,inactive: -0.075,inactive: 0.033,inactive: 0.16,inactive: 0.034,inactive: 0.065,inactive: -0.005,inactive: -0.055,inactive: 0.023,inactive: -0.012,inactive: -0.033,inactive: -0.083,inactive: -0.008,inactive: -0.037,inactive: -0.174,inactive: 0.1,inactive: 0.033,inactive: 0.16
COMMD1 (UniProt Q8N668),inactive: -0.041,inactive: 0.002,inactive: 0.006,inactive: -0.038,inactive: -0.027,inactive: 0.001,inactive: -0.05,inactive: 0.009,inactive: 0.04,inactive: -0.007,inactive: -0.04,inactive: -0.005,inactive: -0.01,inactive: 0.015,inactive: -0.005,inactive: -0.075,inactive: 0.06,inactive: 0.029,inactive: 0.043,inactive: 0.035
COX7B (UniProt P24311),inactive: 0.013,inactive: 0.02,inactive: 0.112,inactive: 0.042,inactive: -0.014,inactive: -0.022,active: 0.315,inactive: 0.028,inactive: 0.018,inactive: -0.139,inactive: -0.002,–,inactive: 0.058,inactive: 0.025,inactive: 0.005,inactive: 0.01,inactive: 0.035,inactive: 0.035,–,inactive: 0.099

# Complete entries as entered above. Order of values: log2 fold change (alvocidib) | log2 fold change (Tubastatin A) | log2 fold change [1] | log2 fold change (defactinib) | log2 fold change [2] | log2 fold change (encorafenib) | log2 fold change [3] | log2 fold change (alisertib) | log2 fold change [4] | log2 fold change (gefitinib) | log2 fold change (lapatinib) | log2 fold change (pictilisib) | log2 fold change (crizotinib) | log2 fold change [5] | log2 fold change (duvelisib) | log2 fold change (gandotinib) | log2 fold change (tozasertib) | log2 fold change (doramapimod) | log2 fold change (bafetinib) | log2 fold change [6]
# COX7B (UniProt P24311) reads inactive: 0.013 | inactive: 0.02 | inactive: 0.112 | inactive: 0.042 | inactive: -0.014 | inactive: -0.022 | active: 0.315 | inactive: 0.028 | inactive: 0.018 | inactive: -0.139 | inactive: -0.002 | – | inactive: 0.058 | inactive: 0.025 | inactive: 0.005 | inactive: 0.01 | inactive: 0.035 | inactive: 0.035 | – | inactive: 0.099
# COX5B (UniProt P10606) reads inactive: 0.053 | inactive: 0.075 | inactive: 0.03 | inactive: 0.055 | inactive: 0.031 | inactive: 0.011 | inactive: -0.031 | inactive: 0.045 | inactive: 0.022 | inactive: -0.159 | inactive: 0.045 | inactive: -0.019 | inactive: 0.036 | inactive: 0.13 | inactive: -0.011 | inactive: -0.119 | inactive: 0.01 | inactive: 0.011 | inactive: 0.003 | inactive: -0.07
